Experimental data: PubChem BioAssay AID1347075 (National Center for Advancing Translational Sciences (NCATS), 2019)
In all, about 400,000 compounds went through this assay and about 5,500 (1.4%) were called active. The shares of active, inactive and inconclusive entries below differ from those in the screen. Calls come from the whole dose curve; as a rule, active = well fitted cell-killing curve with a large enough effect; inconclusive = small, poorly fitted or top-dose-only effect, or effect the other way; inactive = flat fitted curve, though single readings scatter. Potencies beside an inconclusive call are fits to weak or partial responses and may not hold up.

assay: qHTS assay for MDR1-selective chemotherapeutics: Primary screen using the parental adenocarcinoma cell KB-3-1; conditions: KB-3-1 viability, CellTiter-Glo ATP luminescence, 72 h; activity change, negative = cytotoxic: at 46.1 µM (top of the series); note: nearly all actives have a fitted effect of over 60% in size
How it was run: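 KB-3-1 parental drug-naive adenocarcinoma cells in DMEM/10% FBS, incubated 72 h at 37 C with pin-transferred compounds across a concentration series. Viability by CellTiter-Glo luminescence; concentration-response curves fitted after normalization.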
% is set by controls: 0 for no effect and ±100 for the full control effect; potency is the fitted concentration of half-maximal effect.

Compound | Potency | activity change, negative = cytotoxic
COc1ccc(-c2ccc(OC)c([C@H]3[C@@H]4C=CCC[C@@]4(C)C(=O)N3Cc3ccccc3)c2)cc1OC | inconclusive: 16.4 µM [cytotoxic, partial curve, poor fit] | 
C/C(=N/NC(=O)CN1CCN(Cc2ccccc2Cl)CC1)c1ccco1 | inconclusive: 3.66 µM [rising, full curve, poor fit] | 
CC(C)[C@@H]1Cc2[nH]c(=O)[nH]c(=O)c2[C@H](C)O1 | inconclusive: 29.1 µM [cytotoxic, single point] | 
Cc1ccc2cc(C)c3nnc(SCC(=O)Nc4nc5c(s4)CCCC5)n3c2c1C |  | inactive: -14.2%
Cc1ccc(NC(=O)C2CCCN(C(=O)c3cnn(-c4ccccc4)c3-n3cccc3)C2)cc1 (stereo not given) | inconclusive: 18.4 µM [cytotoxic, partial curve] | 
CC(C)C1CC(CCNCc2ccc(N(C)C)cc2)(c2ccccc2)CCO1 (stereo not given) | active: 20.6 µM | 
COc1cc(-c2nnc3sc(C4CCCCC4)nn23)cc(OC)c1OC | inconclusive: 18.4 µM [cytotoxic, single point] | 
COc1cc(/C=C2\SC(=Nc3ccc(O)cc3)NC2=O)cc(OC)c1O | inconclusive: 29.1 µM [cytotoxic, single point] | 
COc1ccc(C)cc1NC(=O)Nc1ccc(C(=O)N2CCCC2)cc1 | inconclusive: 29.1 µM [cytotoxic, single point] | 
CCOc1ccc(S(=O)(=O)NCCC(=O)NCc2cccnc2)cc1 |  | inactive: 5.78%
CCOC(=O)c1nc(Nc2ccc(Nc3ccccc3)cc2)c2ccccc2n1 | inconclusive: 29.1 µM [cytotoxic, single point] | 
CC1(C(=O)Nc2ccc(F)cc2F)CCN1C(=O)CCC1CCCC1 (stereo not given) |  | inactive: 13.9%
COc1cccc(OC)c1C(=O)Nc1ccccc1N1CCCCC1 | inconclusive: 29.1 µM [cytotoxic, single point] | 
Cc1c(O)ccc2c3c(c(=O)oc12)CCCC3 | inconclusive: 16.4 µM [cytotoxic, single point] | 
CC(C)C(=O)NC(=S)/C=C1/N(C)c2ccccc2C1(C)C |  | inactive: -20.3%
O=[N+]([O-])c1cc(S(=O)(=O)Nc2cccc(Cl)c2)ccc1N/N=C/c1ccc(N2CCOCC2)cc1 | inconclusive: 9.2 µM [cytotoxic, partial curve, poor fit] | 
COC(=O)c1cccc(C23CC4(C2)[C@H](CN(Cc2cccnc2)[C@@H]4c2ccccc2)C3c2ccccc2)c1 (stereo not given in full) | inconclusive: 11.6 µM [cytotoxic, partial curve] | 
O=C(Cn1c(=O)cnc2ccccc21)NCC(=O)Nc1ccc(F)c(F)c1 |  | inactive: -2.45%
COc1ccc(C2(c3ccc(OC)cc3)NC(=O)N(CC(=O)Nc3ccc(OC(F)F)cc3)C2=O)cc1 | inconclusive: 29.1 µM [cytotoxic, single point] | 
Cc1cc(Br)ccc1NC(=O)COC(=O)c1ccccc1OCC(N)=O | inconclusive: 11.6 µM [rising, partial curve, poor fit] | 
Cc1nc2ccccc2cc1OCc1ccccc1 | inconclusive: 18.4 µM [cytotoxic, single point] | 
CCN(C(=O)COC(=O)c1cc(NS(=O)(=O)c2ccc(Cl)c([N+](=O)[O-])c2)ccc1O)C1CCCCC1 | inconclusive: 23.1 µM [cytotoxic, single point] | 
COc1ccccc1C(=O)NCC(=O)OCC(=O)c1ccc2c(c1)-c1ccccc1C2 | inconclusive: 18.4 µM [cytotoxic, single point] | 
CC(C)(C)c1ccc(CC(=O)N2CCC2(C)C(=O)NCc2cccs2)cc1 (stereo not given) |  | inactive: -13.9%

Compound | Potency | activity change, negative = cytotoxic
CCOC(=O)N1CCN(CCC(=O)c2ccc(Cl)cc2)CC1 | active: 20.6 µM | 
CCc1cc2c(=O)[nH]c(N3CCCC3)nc2s1 |  | inactive: 5.33%
CCc1ccccc1NC(=O)CN(C)C(=O)c1cc(C2CC2)nc2c1cnn2C(C)C |  | inactive: -13.8%
O=C(CCc1ccccc1)NCc1ccc2c(c1)CCN2C(=O)c1ccccc1 |  | inactive: -4.5%
COc1ccccc1NC(=O)c1oc2ccccc2c1NC(=O)Cc1cccs1 |  | inactive: 2.45%
CS(=O)(=O)N(CC(=O)Nc1c(F)cccc1F)c1ccc(C23CC4CC(CC(C4)C2)C3)cc1 | inconclusive: 20.6 µM [cytotoxic, single point] | 
Cn1cc(C(=O)O)c(=O)c2cc(S(=O)(=O)N3CCOCC3)ccc21 | inconclusive: 25.9 µM [cytotoxic, partial curve, poor fit] | 
O=C(Nc1ccccc1)c1cc(C2CCCCN2S(=O)(=O)c2ccccc2)on1 (stereo not given) | inconclusive: 23.1 µM [cytotoxic, single point] | 
CCC(c1nnnn1-c1ccc2c(c1)OCCO2)N1CCN(c2ccccc2)CC1 (stereo not given) | inconclusive: 23.1 µM [cytotoxic, single point] | 
O=C(NCC1CCCO1)c1ccc2c(=O)n(Cc3cccc(Br)c3)c(=S)[nH]c2c1 (stereo not given) | inconclusive: 1.16 µM [cytotoxic, partial curve, poor fit] | 
Nc1nonc1-n1nnc(C(=O)N/N=C/c2cc(Br)ccc2O)c1CNc1ccccc1 | inconclusive: 16.4 µM [cytotoxic, single point] | 
Cc1c(C=O)ccc(N(C)C)c1C | inconclusive: 29.1 µM [rising, single point] | 
CNC(=O)CC1C(=O)N(c2ccc(Cl)cc2)C(=S)N1CCc1ccc(OC)c(OC)c1 (stereo not given) |  | inactive: -20.5%
CSc1nc(N)nc(SCC(=O)C23CC4CC(CC(C4)C2)C3)c1C#N | inconclusive: 16.4 µM [cytotoxic, single point] | 
O=C(C[C@H]1C=C[C@@H](NS(=O)(=O)c2ccccc2)[C@@H](CO)O1)NCc1ccc(Cl)c(Cl)c1 |  | inactive: -1.51%
O=C(COC(=O)c1cc(-c2cccc(Br)c2)nc2ccccc12)NCC1CCCO1 (stereo not given) |  | inconclusive: -13.2%
CCc1ccc(/C=N/NC(=S)NCCc2ccccc2)cc1 |  | inactive: 3.29%
CCN(CC(=O)NCc1cccs1)C(=O)c1ccc(-c2cccc(C(F)(F)F)c2)o1 |  | inactive: 13%
O=C(c1cccc(NS(=O)(=O)c2ccccc2)c1)N1CCCCC1 |  | inactive: 4.64%
O=C(OCc1ccccc1)N1CCC2CC1c1cc(-c3ccc(F)cc3)ccc12 (stereo not given) | inconclusive: 11.6 µM [cytotoxic, partial curve] | 
OCC(O)C(O)C(O)C(O)C=Nc1ccc(/C=C/c2ccnc3ccccc23)cc1 (stereo not given) | inconclusive: 32.6 µM [cytotoxic, single point] | 
O=C(CN1CCc2ccccc2C1)N1CCN(S(=O)(=O)c2ccccc2)CC1 |  | inactive: 3.07%
O=C(COc1ccc(-c2ccccc2)cc1)N1CCN(C(=O)c2cccnc2)CC1 | inconclusive: 20.6 µM [cytotoxic, single point] | 
COc1ccc2cc(C3CC(c4cccs4)=NN3C(C)=O)c(Cl)nc2c1 (stereo not given) |  | inactive: -16.6%

Compound | Potency | activity change, negative = cytotoxic
Cc1ccccc1Oc1nc2ccccn2c(=O)c1/C=C(\C#N)C(=O)Nc1c(C)n(C)n(-c2ccccc2)c1=O |  | inactive: 9.6%
Cn1c(N)c(NC(=S)NC2CCCCC2)c(=O)n(C)c1=O |  | inactive: 15%
COc1ccc(-c2noc(C3CCCN(S(=O)(=O)c4cccc(Cl)c4C)C3)n2)cc1OC (stereo not given) |  | inactive: 4.01%
COc1cc([N+](=O)[O-])ccc1NC(=O)Nc1cnccn1 | inconclusive: 0.731 µM [cytotoxic, full curve, poor fit] | 
O=C(CCl)Nc1cc(SCC(O)CO)cc([N+](=O)[O-])c1 (stereo not given) | active: 5.8 µM | 
Cc1cccc(C=CC(=O)c2ccccc2)c1 | inconclusive: 16.4 µM [cytotoxic, partial curve] | 
CCOC(=O)c1ccc(N2CC3=C(C2=O)C(c2ccc(OC)cc2)NC(=O)N3C)cc1 (stereo not given) |  | inactive: -0.161%
Cc1ccc(CN2C3CCCC2CC(NC(=O)c2ccc(C)cc2)C3)cc1 (stereo not given) |  | inactive: -5.78%
Cc1cc(C(=O)O)cc(S(=O)(=O)Nc2c(C)nn(C)c2C)c1C |  | inactive: 2.77%
Cc1ccc(-c2nn(-c3ccccc3)cc2C(=O)N2CCN(c3ccccn3)CC2)cc1 | inconclusive: 32.6 µM [cytotoxic, single point] | 
COc1ccc(NC(=O)Nc2cc(F)ccc2C)cc1 | inconclusive: 16.4 µM [cytotoxic, single point] | 
Cc1ccc(-n2nnnc2CCl)cc1 | inconclusive: 29.1 µM [cytotoxic, single point] | 
CCC(C)Sc1ccc([C@@H]2[C@H]3C(=O)N(CC)C(=O)[C@H]3[C@]3(C(=O)OC)CCCCN23)cc1 (stereo not given in full) | inconclusive: 29.1 µM [cytotoxic, single point] | 
c1ccc(Nc2cccc(Nc3ccccc3)c2)cc1 | inconclusive: 29.1 µM [cytotoxic, single point] | 
Cc1cc(O)cc(O)c1-c1onc(C(F)(F)F)c1-c1cscn1 | inconclusive: 20.6 µM [cytotoxic, single point] | 
N#Cc1ccccc1OCC(=O)N1CCN(c2ccccc2)CC1 |  | inactive: 0.0201%
O=C(Nc1nncs1)c1ccccc1NS(=O)(=O)c1cccs1 | inconclusive: 1.84 µM [cytotoxic, partial curve, poor fit] | 
O=C(CN(Cc1ccc(Cl)c(Cl)c1)S(=O)(=O)c1ccccc1)N/N=C\c1ccc2c(c1)OCO2 | inconclusive: 29.1 µM [cytotoxic, single point] | 
Cc1nc2c(c(C)c1CCC(=O)Nc1ccc(F)cc1)c(=O)n(C)c(=O)n2C |  | inactive: 1.8%
CCCC(C(=O)NC1CCCC1)N(Cc1ccccc1Cl)C(=O)c1snc(C(N)=O)c1N (stereo not given) | inconclusive: 4.11 µM [rising, full curve, poor fit] | 
O=C1NC(=S)S/C1=C\c1ccc(SCc2ccccc2)o1 | inconclusive: 18.4 µM [cytotoxic, partial curve] | 
COc1ccc(CCC(=O)N2CCCC(Nc3ccc(C)c(C)c3)C2)cc1OC (stereo not given) |  | inactive: -19.9%

Structures shown so far with a CF3 group (2):
Compound | Potency | activity change, negative = cytotoxic
CCN(CC(=O)NCc1cccs1)C(=O)c1ccc(-c2cccc(C(F)(F)F)c2)o1 |  | inactive: 13%
Cc1cc(O)cc(O)c1-c1onc(C(F)(F)F)c1-c1cscn1 | inconclusive: 20.6 µM [cytotoxic, single point] | 
